## Screening data, single-dose tests

The chains behind the UniProt entries cited, without tags or fusion partners. Residues count along the entry.
UniProt P9WNZ1, whole entry: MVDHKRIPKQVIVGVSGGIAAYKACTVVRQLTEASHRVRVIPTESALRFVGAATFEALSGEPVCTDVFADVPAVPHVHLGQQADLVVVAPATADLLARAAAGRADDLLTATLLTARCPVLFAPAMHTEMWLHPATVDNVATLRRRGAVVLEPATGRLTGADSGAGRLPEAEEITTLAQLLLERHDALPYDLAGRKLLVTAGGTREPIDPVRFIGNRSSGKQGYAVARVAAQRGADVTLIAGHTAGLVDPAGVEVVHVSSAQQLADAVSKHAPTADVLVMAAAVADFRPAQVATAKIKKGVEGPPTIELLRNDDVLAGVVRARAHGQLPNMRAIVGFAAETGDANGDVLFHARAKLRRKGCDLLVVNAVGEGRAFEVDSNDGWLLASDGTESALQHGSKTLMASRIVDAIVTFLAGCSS
UniProt I6X8D2, whole entry: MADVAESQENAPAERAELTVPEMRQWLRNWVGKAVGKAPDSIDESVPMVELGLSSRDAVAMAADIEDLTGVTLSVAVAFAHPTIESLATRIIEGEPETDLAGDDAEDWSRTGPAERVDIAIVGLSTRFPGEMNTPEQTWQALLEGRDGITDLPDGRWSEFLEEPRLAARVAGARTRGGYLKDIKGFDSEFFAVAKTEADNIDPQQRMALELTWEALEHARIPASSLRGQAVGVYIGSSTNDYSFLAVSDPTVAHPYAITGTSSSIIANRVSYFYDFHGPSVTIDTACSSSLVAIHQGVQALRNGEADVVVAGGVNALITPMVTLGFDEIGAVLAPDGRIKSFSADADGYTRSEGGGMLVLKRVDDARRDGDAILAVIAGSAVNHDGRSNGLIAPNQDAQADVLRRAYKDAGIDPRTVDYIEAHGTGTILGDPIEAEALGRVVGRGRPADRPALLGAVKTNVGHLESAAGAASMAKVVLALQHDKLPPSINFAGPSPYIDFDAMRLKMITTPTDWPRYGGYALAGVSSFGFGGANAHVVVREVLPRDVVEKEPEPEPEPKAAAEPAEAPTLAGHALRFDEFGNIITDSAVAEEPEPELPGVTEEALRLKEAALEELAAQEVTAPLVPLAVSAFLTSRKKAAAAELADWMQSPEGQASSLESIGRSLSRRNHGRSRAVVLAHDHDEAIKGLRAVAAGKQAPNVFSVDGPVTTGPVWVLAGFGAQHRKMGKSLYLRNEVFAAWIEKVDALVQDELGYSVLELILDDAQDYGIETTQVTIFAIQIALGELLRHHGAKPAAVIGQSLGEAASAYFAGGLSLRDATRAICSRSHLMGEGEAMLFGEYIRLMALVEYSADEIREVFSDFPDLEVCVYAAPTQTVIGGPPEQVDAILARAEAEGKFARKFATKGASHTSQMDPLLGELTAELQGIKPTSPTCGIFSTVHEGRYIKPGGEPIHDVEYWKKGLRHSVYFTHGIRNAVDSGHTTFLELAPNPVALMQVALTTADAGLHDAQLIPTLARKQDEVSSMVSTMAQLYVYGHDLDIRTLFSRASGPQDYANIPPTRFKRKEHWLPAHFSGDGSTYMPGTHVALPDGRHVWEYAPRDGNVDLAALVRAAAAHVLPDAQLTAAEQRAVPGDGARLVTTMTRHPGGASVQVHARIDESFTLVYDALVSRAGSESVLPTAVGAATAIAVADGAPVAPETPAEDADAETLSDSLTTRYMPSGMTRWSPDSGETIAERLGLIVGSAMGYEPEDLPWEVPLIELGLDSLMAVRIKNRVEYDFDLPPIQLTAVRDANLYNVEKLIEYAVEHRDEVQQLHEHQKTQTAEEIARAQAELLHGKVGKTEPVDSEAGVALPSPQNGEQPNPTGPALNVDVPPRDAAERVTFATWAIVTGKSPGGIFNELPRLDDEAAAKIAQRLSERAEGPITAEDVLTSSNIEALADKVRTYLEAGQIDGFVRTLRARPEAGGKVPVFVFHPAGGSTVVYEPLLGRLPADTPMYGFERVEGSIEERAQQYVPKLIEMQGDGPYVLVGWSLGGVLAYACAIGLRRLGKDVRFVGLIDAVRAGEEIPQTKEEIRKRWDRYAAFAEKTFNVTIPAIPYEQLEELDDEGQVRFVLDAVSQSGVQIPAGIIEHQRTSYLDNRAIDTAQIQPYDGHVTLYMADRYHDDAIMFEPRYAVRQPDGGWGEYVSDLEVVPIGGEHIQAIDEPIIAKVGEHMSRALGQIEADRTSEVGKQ
UniProt P9WPC5, whole entry: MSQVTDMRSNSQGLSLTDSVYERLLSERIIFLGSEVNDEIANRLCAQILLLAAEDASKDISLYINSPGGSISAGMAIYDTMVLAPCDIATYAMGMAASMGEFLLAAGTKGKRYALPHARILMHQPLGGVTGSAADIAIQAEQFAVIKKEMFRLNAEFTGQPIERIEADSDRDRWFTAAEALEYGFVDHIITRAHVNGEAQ
UniProt P9WPC3, whole entry partner: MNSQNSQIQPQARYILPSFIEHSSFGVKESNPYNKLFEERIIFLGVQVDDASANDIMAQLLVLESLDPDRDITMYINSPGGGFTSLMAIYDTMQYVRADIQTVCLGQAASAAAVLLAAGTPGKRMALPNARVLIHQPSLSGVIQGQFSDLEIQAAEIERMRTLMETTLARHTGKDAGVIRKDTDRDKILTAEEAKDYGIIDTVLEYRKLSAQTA
UniProt Q4DA54, 1-478: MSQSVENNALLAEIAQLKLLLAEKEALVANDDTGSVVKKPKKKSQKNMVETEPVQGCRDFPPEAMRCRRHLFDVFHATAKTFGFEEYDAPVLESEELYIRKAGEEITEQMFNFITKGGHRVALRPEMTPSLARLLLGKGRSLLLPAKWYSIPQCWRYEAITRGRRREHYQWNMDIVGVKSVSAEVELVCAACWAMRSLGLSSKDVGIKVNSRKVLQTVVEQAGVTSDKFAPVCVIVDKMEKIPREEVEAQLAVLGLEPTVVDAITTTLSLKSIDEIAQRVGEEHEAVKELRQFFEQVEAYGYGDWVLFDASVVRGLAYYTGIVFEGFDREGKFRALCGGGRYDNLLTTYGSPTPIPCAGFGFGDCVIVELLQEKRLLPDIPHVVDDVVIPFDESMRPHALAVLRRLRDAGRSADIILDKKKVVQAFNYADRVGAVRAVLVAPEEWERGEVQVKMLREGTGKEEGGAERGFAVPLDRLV

Source: ChEMBL document CHEMBL3988442, “University of Dundee, Small-Polar-MMV Screening Library” (2021).

A: 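Enzyme assay of CoaBC with a phosphate dye (Biomol Green) read at 650 nm. Target: Coenzyme A biosynthesis protein CoaBC, Mycobacterium tuberculosis (UniProt P9WNZ1). Compounds at 30 µM. Direction is inferred from only a few compounds that gave an IC50; most scored high, so higher reads as stronger inhibition. Most strong results did not repeat in a second test. Of about 67,000 compounds tested this way, about 40 (0.06%) reached 50% or more in at least one test.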
B: 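Cell assay of Leishmania donovani living inside macrophages; the read-out is not stated. Concentration: 30 µM. Direction is inferred from retests: higher values go with stronger inhibition. Of about 69,000 compounds tested this way, about 1,000 (1.5%) reached 50% or more in at least one test.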
C: 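Enzyme assay of the thioesterase domain of polyketide synthase 13; the read-out is not stated. Target: Polyketide synthase Pks13, Mycobacterium tuberculosis (UniProt I6X8D2). Tested at 30 µM. Higher reads as stronger inhibition (inferred from which compounds were picked for retests). About 67,000 compounds were tested under these conditions; 0.46% (about 300) showed 50% or more at least once.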
D: 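ClpP1P2, Mycobacterium tuberculosis (UniProt P9WPC5 and UniProt P9WPC3). Protease assay of ClpP1P2, read by the AMC dye that it sets free. Compounds at 50 µM. Higher reads as stronger inhibition, judged from the few compounds that gave an IC50. Most other retested compounds had strongly negative values. About 69,000 compounds were tested under these conditions; 0.015% (about 10) showed 50% or more at least once.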
E: 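Histidine-tRNA ligase, Trypanosoma cruzi CL Brener (UniProt Q4DA54). Enzyme assay of histidyl-tRNA synthetase; the read-out is not stated. Tested at 30 µM. The record gives no direction; compounds that gave an IC50 in retests scored well above the rest, so higher reads as stronger inhibition. Size under these conditions: about 69,000 compounds, about 31 of them at 50% or above in at least one test.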

Results are given as percent effect. The record does not define 0% and 100%; most values in the screen are far below 50% and negative numbers occur (in some assays of this library far below -100). The compounds are a random part of those screened. Two or more numbers in one place are separate tests of the same structure; such repeats can differ widely. A dash means the value is not listed here; it may have been measured.

| # | structure | A | B | C | D | E |
|---|---|---|---|---|---|---|
| 1 | `Fc1ccccc1CC1CCN(Cc2cscn2)CC1` | -16.36% | 22.63% | -25.5% | -3.235% | 3.784% |
| 2 | `CC(C)c1n[nH]c(C(=O)Nc2ccccn2)c1Br` | -0.8772% | 0.489% | -9.252% | -6.95% | 2.907% |
| 3 | `Cc1c(C2CCCN(C(=O)c3ccn(C)n3)C2)n2c(nc1=O)CCC2` (stereo not shown) | -1.225% | -8.346% | -6.993% | 3.906% | 7.447% |
| 4 | `O=C(O)C(F)(F)F.O=C(O)c1cc(NS(=O)(=O)c2ccc(Cl)s2)ccc1N1CCOCC1` | - | -3.84% | - | - | - |
| 5 | `Cc1cc(C(=O)NCc2ccnc(N(C)C)c2)c(C)o1` | 0.7229% | 11.89% | -4.494% | 6.323% | -0.7634% |
| 6 | `CC1CN(c2ncnc3ccccc23)CCO1` (stereo not shown) | 11.71% | 1.293% | 13.7% | -8.952% | -4.433% |
| 7 | `COCCN1CCC2(CC1)CC(NC(=O)C1CC1)c1ccccc1O2` (stereo not shown) | 5.534% | - | -43.03% | -14.3% | 4.854% |
| 8 | `CCC(CO)N(Cc1cccs1)C(=O)Cc1ccc(O)cc1` (stereo not shown) | -1.229% | -10.27% | -1.049% | -13.28% | 2.469% |
| 9 | `Cc1c[nH]nc1C1CCN(C(=O)Cn2cccn2)C1` (stereo not shown) | 2.843% | 4.843% | 5.036% | -11.55% | 6.844% |
| 10 | `CC(C)NC(=O)CN(C)C1CCN(c2cnc3ccccc3n2)CC1` | 1.33% | 41.81% | -2.017% | -10.73% | 5.844% |
| 11 | `CN(CCCc1cnn(C)c1)C(=O)C1CCC(=O)N(C2CCCC2)C1` (stereo not shown) | -2.755% | 11.37% | -0.2846% | 15.68% | 6.154% |
| 12 | `CCN(CC)CCn1cnc(-c2ccccc2)c1-c1ncc[nH]1` | 3.602% | 27.97% | -14.22% | -21.18% | -0.9662% |
| 13 | `Cc1nc(CN2C(=O)CC[C@H]3[C@@H]2CCN3C(=O)c2ccsc2)cs1` | 3.342% | - | -32.48% | 6.831% | 2.762% |
| 14 | `c1cnc(N2CCC3(COCc4cnc(-c5cccnc5)nc43)C2)nc1` (stereo not shown) | -7.455% | - | -10.58% | 2.522% | 4.972% |
| 15 | `CCC(C#N)NC(=O)c1ccc(Oc2cccnc2)cc1` (stereo not shown) | 1.653% | -6.462% | -31.67% | -1.147% | 0.578% |
| 16 | `Cc1nn(C)c(C)c1CC(=O)NCc1ccnc(OC2CCCC2)c1` | 0.8547% | 28.99% | -36.55% | -1.371% | 1.622% |
| 17 | `COCCN1CC(O)CN(C(=O)c2ccc(SC)cc2)CC1=O` (stereo not shown) | 2.179% | 3.794% | -0.8436% | 8.267% | 10.11% |
| 18 | `CSCCCN1C(=O)CC[C@H]2CN(Cc3ncc[nH]3)CC[C@H]21` | 2.479% | - | -17.34% | -0.6206% | 9.827% |
| 19 | `O=C1CCCCCN1Cc1ncnn1Cc1c(F)cccc1Cl` | -1.082% | 17% | 1.486% | 1.11% | 7.2% |
| 20 | `CCCNC(=O)c1cccc(CNCc2csc(C(C)C)n2)c1` | 2.177% | 33.66% | -6.075% | 6.803% | 7.975% |
| 21 | `CCOC(=O)N1CCN(C(=O)c2ccc3ccn(C)c3c2)CC1` | -3.509% | 11.87% | -10.65% | -8.318% | 0.8264% |
| 22 | `CCN(Cc1ccco1)C(=O)c1cc(OC)c2c(c1)OCCO2` | 0.135% | -16.11% | -28.41% | 6.428% | 7.609% |
| 23 | `CC(C)[C@H]1CN(Cc2ccncc2)C[C@@H]1NC(=O)C1(C#N)CCOCC1` | 6.796% | 6.944% | 2.042% | -0.4212% | 1.98% |
| 24 | `[H][C@@]12CCN(C(=O)c3ccccc3)[C@]1([H])C(=O)N(c1ccc(F)cc1)C(=O)N2` | - | 18.41% | - | - | - |
| 25 | `c1cc(-c2noc(CN3CCn4c(nnc4C4CC4)C3)n2)co1` | -1.813% | -2.617% | -9.445% | -1.056% | 3.053% |
| 26 | `CCS(=O)(=O)c1ccc2c(c1)N1CCS(=O)(=O)N=C1O2` | 1.013% | -0.6728% & 9.975% | 0.2712% | -21.68% | 3.659% |
| 27 | `Cc1cc(N2CCC(c3n[nH]c4nccnc34)CC2)ncn1` | -0.4866% | -4.914% & -11.9% | -25.32% | 1.033% | 1.493% |
| 28 | `O=C(NCc1ccccn1)[C@@]12CCO[C@@H]1CCN(c1ncccn1)C2` | 2.222% | - | -4.241% | 3.232% | 9.524% |
| 29 | `Cc1nc(C)n(CC2CCCN(CC(=O)Nc3nncs3)C2)n1` (stereo not shown) | 1.064% | 6.526% | -4.862% | 10.41% | -17.87% |
| 30 | `COc1ccccc1OCCNCc1c(C)nn(C)c1N(C)C` | 7.673% | - | -19.42% | -42.03% | 5.882% |
| 31 | `O=C1CO[C@@H]2CN(C3CCOCC3)C[C@H]2N1Cc1cccc(F)c1` | 2.03% | - | -18.74% | -4.945% | 8.867% |
| 32 | `CC(C)N1CCc2c(c(COc3cccnc3)nn2CC2CC2)C1.O=C(O)C(F)(F)F.O=C(O)C(F)(F)F.O=C(O)C(F)(F)F` | - | -7.386% & -4.302% | - | - | - |
| 33 | `COc1ccc(-c2n[nH]c(C)c2CC(=O)N2CCOCC2)cc1` | 4.739% | 28.52% | -9.538% | 12.98% | 11.88% |
| 34 | `Cn1cnnc1C1CCCN(C(=O)NCCc2ccccc2F)C1` (stereo not shown) | 9.744% | 16.24% | -19.4% | 9.808% | -1.887% |
| 35 | `CC(=O)N1CCC(NC(=O)N2CCN(c3cnccn3)CC2)CC1` | 3.571% | -6.126% | -6.267% | -15.01% | 5.848% |
| 36 | `CNC(=O)C1(c2cnccn2)CCCN1C(=O)c1c(F)cccc1F` (stereo not shown) | 0.4902% | -49.98% | -21.36% | 10.29% | 9.574% |
| 37 | `Cc1nc(CO[C@@H]2CN(Cc3ccsc3)[C@@H]3COC[C@@H]32)cs1` | 4.809% | - | - | -22.19% | 1.754% |
| 38 | `Cn1cc(CNC2CCc3ncnn3C2)c(-c2ccncc2)n1` (stereo not shown) | 3.831% | -4.396% | -9.844% | 0.7305% | 1.087% |
| 39 | `CC[C@H](C)[C@H](N)C(=O)Nc1nc(-c2cnc(N3CCOCC3)nc2)cs1` | 2.048% | 3.562% & -10.87% | 36.72% | -0.7979% | 11.3% |
| 40 | `CN1CCN(Cc2cccnc2)C2(CCN(c3ncccn3)C2)C1=O` (stereo not shown) | 1.794% | - | -33.84% | -7.161% | 5.941% |
| 41 | `O=C(c1cccn1Cc1cccs1)N1CCN(C2CC2)CC1` | -0.4819% | 17.45% | -4.098% | 2.775% | 1.527% |
| 42 | `CNC(=O)c1c[nH]nc1C1CCCN1c1ncccn1` (stereo not shown) | -11.41% | -7.33% | 8.953% | -5.586% | 10.85% |
| 43 | `Cc1nc(C)n(C2CCCN(C(=O)COCc3ccccc3)C2)n1` (stereo not shown) | 1.928% | 16.1% | -5.161% | -4.345% | 1.527% |
| 44 | `COc1cc(OC)cc(-c2noc(C(N)CCSC)n2)c1` (stereo not shown) | 0.4819% | -22.46% | -16.24% | 17.81% | 6.931% |
| 45 | `O=C(NCc1cccnc1)c1cn(CCc2ccccc2)nn1` | -2.511% | -34.98% | 19.92% | -15.95% | 2% |
| 46 | `COc1ccc(C)cc1NC(=O)Nc1cnc(O)nc1O` | 3.027% | -18.37% | -3.591% | -16.03% | 3.96% |
| 47 | `[H][C@@]12CS(=O)(=O)C[C@]1([H])N(C(=O)c1ncoc1C)CCN2Cc1ccccc1` | - | 0.2997% | - | - | - |
| 48 | `N#Cc1ccsc1N1CCC(Sc2ccncc2)C1=O` (stereo not shown) | 32.89% & 10.58% | 5.242% | -12.47% | -7.975% | 15% |
| 49 | `CC(=O)NCC1CN(c2ccc3c(Cl)ccnc3c2F)CCO1` (stereo not shown) | - | 8.109% | -45.74% | 0.9626% | 14.47% |
| 50 | `O=S(=O)(NCc1ccc(S(=O)(=O)N2CCCC2)s1)c1cc(Cl)cc(Cl)c1` | 1.768% | 37.2% | -24.64% | 1.676% | -13.45% |
| 51 | `CC(C(=O)N(C)C1CCCCC1)S(=O)(=O)Cc1csc(-c2cccs2)n1` (stereo not shown) | 0.9828% | 35.32% | -27.87% | -11.69% | 12.94% |
| 52 | `O=C(O)C(F)(F)F.[H][C@]12CCC[C@@H](CNc3ccccn3)[C@@]1([H])CN(Cc1cc[nH]n1)C2` | - | 3.676% | - | - | - |
| 53 | `COc1ccc(CCC(=O)N2CCCC(n3cncn3)C2)cc1` (stereo not shown) | -6.579% | 14.25% | 3.886% | -7.131% | 2.907% |
| 54 | `Cl.c1ccc(CNc2cc(C3CCCNC3)ccn2)nc1` (stereo not shown) | - | 26.75% | - | - | - |
| 55 | `CN(Cc1c(F)cccc1Cl)C(=O)c1cnn(CCN2CCOCC2)c1` | 1.733% | 25.3% | 14.97% | -7.727% | 7.229% |
| 56 | `Cc1cc(C)n(CC2CCCCN2CC(=O)Nc2nncs2)n1` (stereo not shown) | 0% | 2.612% | -18.97% | -7.83% | 2.075% |
| 57 | `NC(=O)c1csc(N2C[C@@H](CN3CCCCC3)[C@@H](CO)C2)n1` | -3.236% | -2.448% | -38.02% | -12.62% | 9.045% |
| 58 | `Cc1ccccc1-n1cnnc1SCCOCC1CCCO1` (stereo not shown) | -1.952% | -25.26% | -16.63% | -4.016% | 1.064% |
| 59 | `CS(=O)(=O)N1CCOC2(CCCC2)C1` | -2.696% | 16.33% | -22.23% | 0.7641% | 5.952% |
| 60 | `c1cncc(-c2ccc3c(c2)C2(CC3)CCN(c3nncs3)CC2)c1` | 12.69% | - | -3.435% | 2.164% | 6.612% |
| 61 | `COCCN1CCOCC2(CCCN(Cc3cccc(F)c3)C2)C1` (stereo not shown) | 1.176% | - | -8.292% | -0.7055% | -0.4808% |
| 62 | `CSc1ccc(-c2nc(CN3CCCC(CNC(C)=O)C3)c(C)o2)cc1` (stereo not shown) | 17.05% | 23.29% | -4.322% | -1.446% | -1.667% |

7 of the entries, repeated:

| structure | A | B | C | D | E |
|---|---|---|---|---|---|
| `O=C1CO[C@@H]2CN(C3CCOCC3)C[C@H]2N1Cc1cccc(F)c1` | 2.03% | - | -18.74% | -4.945% | 8.867% |
| `Cc1ccccc1-n1cnnc1SCCOCC1CCCO1` (stereo not shown) | -1.952% | -25.26% | -16.63% | -4.016% | 1.064% |
| `c1cc(-c2noc(CN3CCn4c(nnc4C4CC4)C3)n2)co1` | -1.813% | -2.617% | -9.445% | -1.056% | 3.053% |
| `[H][C@@]12CS(=O)(=O)C[C@]1([H])N(C(=O)c1ncoc1C)CCN2Cc1ccccc1` | - | 0.2997% | - | - | - |
| `COc1ccccc1OCCNCc1c(C)nn(C)c1N(C)C` | 7.673% | - | -19.42% | -42.03% | 5.882% |
| `N#Cc1ccsc1N1CCC(Sc2ccncc2)C1=O` (stereo not shown) | 32.89% & 10.58% | 5.242% | -12.47% | -7.975% | 15% |
| `COCCN1CCOCC2(CCCN(Cc3cccc(F)c3)C2)C1` (stereo not shown) | 1.176% | - | -8.292% | -0.7055% | -0.4808% |